Data reported in PMC2043495.
No constants are given. Whether binding was seen depends on the method and setting. Binding seen in cells or lysates may run through a third protein. Some entries that bind do so weakly or less than the wild type. Where a sequence is shown, tags or fusion partners need not be part of it.

The chains behind the UniProt entries cited, without tags or fusion partners.
UniProt Q16539: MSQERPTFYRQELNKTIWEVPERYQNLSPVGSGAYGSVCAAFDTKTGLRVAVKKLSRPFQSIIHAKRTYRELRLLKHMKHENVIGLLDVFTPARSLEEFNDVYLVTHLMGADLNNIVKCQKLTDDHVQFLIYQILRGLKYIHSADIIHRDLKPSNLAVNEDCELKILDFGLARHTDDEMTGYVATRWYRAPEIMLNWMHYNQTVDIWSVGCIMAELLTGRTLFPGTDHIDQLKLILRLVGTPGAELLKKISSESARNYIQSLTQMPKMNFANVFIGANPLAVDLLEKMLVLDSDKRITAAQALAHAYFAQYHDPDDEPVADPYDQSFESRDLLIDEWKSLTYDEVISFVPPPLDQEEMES

T1: Flag-TXNL1 (UniProt O43396)
T1 sequence: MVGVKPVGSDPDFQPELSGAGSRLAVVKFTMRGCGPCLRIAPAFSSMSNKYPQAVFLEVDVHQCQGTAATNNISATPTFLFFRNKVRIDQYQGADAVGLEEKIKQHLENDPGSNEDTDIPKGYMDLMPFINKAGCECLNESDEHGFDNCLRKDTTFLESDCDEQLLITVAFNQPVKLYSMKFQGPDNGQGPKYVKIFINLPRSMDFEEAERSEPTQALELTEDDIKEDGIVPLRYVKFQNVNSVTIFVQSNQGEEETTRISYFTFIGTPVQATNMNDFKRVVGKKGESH


Legend:
Flag-TXNL1 = target: T1, Flag-TXNL1; assay: co-IP; HeLa cells co-transfected with Flag-TXNL1 and His6-p38MAPK; lysis in TNE (20 mM Tris pH 7.4, 150 mM NaCl, 1 mM EDTA) with 10% glycerol, 1% NP-40; IP with or without the indicated antibodies, protein-A Sepharose; western blotting
His6-p38MAPK = His6-p38MAPK (UniProt Q16539); assay: as above

Row | Molecule | binding (Flag-TXNL1) | binding (His6-p38MAPK)
1 | His6-p38MAPK (from UniProt Q16539 1-360) | binds weakly | 
2 | Flag-TXNL1 (protein, UniProt O43396 1-289) MVGVKPVGSDPDFQPELSGAGSRLAVVKFTMRGCGPCLRIAPAFSSMSNKYPQAVFLEVDVHQCQGTAATNNISATPTFLFFRNKVRIDQYQGADAVGLEEKIKQHLENDPGSNEDTDIPKGYMDLMPFINKAGCECLNESDEHGFDNCLRKDTTFLESDCDEQLLITVAFNQPVKLYSMKFQGPDNGQGPKYVKIFINLPRSMDFEEAERSEPTQALELTEDDIKEDGIVPLRYVKFQNVNSVTIFVQSNQGEEETTRISYFTFIGTPVQATNMNDFKRVVGKKGESH |  | binds weakly
